For at least one entry, the source does not settle the construct or the ends of the probe. The comparison behind a weaker result is the experiment's own reference, which may not be listed here. Where a protein sequence is shown, tags need not be part of it.
Target: T1, DnaG-E175Q (Saccharolobus (Sulfolobus) solfataricus) (UniProt P95980)
T1 sequence (looked up, limits assumed): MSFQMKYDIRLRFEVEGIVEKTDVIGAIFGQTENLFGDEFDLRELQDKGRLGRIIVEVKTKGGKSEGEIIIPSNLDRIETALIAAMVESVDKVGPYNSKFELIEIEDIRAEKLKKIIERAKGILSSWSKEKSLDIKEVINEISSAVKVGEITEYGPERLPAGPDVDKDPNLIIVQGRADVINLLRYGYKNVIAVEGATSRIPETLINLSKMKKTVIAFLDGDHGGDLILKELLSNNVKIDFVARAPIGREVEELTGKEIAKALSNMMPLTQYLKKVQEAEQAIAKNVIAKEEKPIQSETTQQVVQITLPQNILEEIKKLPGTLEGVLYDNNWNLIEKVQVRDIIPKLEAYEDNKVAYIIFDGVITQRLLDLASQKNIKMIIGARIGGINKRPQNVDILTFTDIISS
Test: EMSA
Conditions: 25 fmol RNA, 2.5 pmol protein; 20 mM HEPES pH 7.9, 60 mM KCl, 10 mM MgCl2, 10% glycerol, 2 mM DTT, 0.1 mM EDTA; room temperature 5 min, 10 ul; 5% native PAA gel at 4 C; recombinant protein; label: 5' label (radioactive)

Question: Does “AAAAAAAAAAAAAAAAAAAAAAAAAAAAAA [poly(rA)30]” bind?
Answer: binds more weakly

From paper PMC4227792 (Nucleic Acids Research, 2014)
